Experimental data: paper PMC6173745, “Aberrant expression of CITED2 promotes prostate cancer metastasis by activating the nucleolin-AKT pathway” (Nature Communications, 2018)
Results are given in words; binding and its absence hold for the method and conditions named. For some assays here: In cells and extracts the contact can be indirect. Some binding calls cover weakened binding; strength is not graded here.

Amino acid sequences for entries named in this document (tags omitted).
UniProt P19338: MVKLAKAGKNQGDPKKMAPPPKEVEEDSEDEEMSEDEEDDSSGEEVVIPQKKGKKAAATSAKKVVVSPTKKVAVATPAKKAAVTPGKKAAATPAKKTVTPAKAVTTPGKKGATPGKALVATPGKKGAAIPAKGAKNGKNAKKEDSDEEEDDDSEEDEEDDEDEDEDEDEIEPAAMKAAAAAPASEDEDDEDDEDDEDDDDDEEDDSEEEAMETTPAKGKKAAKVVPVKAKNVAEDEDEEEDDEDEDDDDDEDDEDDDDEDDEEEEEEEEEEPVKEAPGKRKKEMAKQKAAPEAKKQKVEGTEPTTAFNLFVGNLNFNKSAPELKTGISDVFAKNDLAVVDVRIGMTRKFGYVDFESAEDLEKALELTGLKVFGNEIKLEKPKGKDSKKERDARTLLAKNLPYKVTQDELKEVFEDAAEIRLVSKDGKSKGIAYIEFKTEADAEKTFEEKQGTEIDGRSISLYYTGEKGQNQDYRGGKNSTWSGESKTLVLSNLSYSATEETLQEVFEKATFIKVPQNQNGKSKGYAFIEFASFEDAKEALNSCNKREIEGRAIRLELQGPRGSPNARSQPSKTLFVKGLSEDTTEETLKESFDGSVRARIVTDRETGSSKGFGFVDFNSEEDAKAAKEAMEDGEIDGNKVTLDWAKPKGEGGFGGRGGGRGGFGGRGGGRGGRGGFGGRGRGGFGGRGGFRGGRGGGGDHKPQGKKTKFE
UniProt Q9BQA1: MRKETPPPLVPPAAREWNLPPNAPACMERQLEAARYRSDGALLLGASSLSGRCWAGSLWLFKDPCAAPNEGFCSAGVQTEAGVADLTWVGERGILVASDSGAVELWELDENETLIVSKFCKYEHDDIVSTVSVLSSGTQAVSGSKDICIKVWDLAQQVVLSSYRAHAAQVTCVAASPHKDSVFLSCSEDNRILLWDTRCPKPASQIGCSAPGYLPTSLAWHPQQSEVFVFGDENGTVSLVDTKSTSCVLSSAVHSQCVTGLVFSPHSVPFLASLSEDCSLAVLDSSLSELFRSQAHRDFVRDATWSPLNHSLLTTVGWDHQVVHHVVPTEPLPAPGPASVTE
UniProt Q09472: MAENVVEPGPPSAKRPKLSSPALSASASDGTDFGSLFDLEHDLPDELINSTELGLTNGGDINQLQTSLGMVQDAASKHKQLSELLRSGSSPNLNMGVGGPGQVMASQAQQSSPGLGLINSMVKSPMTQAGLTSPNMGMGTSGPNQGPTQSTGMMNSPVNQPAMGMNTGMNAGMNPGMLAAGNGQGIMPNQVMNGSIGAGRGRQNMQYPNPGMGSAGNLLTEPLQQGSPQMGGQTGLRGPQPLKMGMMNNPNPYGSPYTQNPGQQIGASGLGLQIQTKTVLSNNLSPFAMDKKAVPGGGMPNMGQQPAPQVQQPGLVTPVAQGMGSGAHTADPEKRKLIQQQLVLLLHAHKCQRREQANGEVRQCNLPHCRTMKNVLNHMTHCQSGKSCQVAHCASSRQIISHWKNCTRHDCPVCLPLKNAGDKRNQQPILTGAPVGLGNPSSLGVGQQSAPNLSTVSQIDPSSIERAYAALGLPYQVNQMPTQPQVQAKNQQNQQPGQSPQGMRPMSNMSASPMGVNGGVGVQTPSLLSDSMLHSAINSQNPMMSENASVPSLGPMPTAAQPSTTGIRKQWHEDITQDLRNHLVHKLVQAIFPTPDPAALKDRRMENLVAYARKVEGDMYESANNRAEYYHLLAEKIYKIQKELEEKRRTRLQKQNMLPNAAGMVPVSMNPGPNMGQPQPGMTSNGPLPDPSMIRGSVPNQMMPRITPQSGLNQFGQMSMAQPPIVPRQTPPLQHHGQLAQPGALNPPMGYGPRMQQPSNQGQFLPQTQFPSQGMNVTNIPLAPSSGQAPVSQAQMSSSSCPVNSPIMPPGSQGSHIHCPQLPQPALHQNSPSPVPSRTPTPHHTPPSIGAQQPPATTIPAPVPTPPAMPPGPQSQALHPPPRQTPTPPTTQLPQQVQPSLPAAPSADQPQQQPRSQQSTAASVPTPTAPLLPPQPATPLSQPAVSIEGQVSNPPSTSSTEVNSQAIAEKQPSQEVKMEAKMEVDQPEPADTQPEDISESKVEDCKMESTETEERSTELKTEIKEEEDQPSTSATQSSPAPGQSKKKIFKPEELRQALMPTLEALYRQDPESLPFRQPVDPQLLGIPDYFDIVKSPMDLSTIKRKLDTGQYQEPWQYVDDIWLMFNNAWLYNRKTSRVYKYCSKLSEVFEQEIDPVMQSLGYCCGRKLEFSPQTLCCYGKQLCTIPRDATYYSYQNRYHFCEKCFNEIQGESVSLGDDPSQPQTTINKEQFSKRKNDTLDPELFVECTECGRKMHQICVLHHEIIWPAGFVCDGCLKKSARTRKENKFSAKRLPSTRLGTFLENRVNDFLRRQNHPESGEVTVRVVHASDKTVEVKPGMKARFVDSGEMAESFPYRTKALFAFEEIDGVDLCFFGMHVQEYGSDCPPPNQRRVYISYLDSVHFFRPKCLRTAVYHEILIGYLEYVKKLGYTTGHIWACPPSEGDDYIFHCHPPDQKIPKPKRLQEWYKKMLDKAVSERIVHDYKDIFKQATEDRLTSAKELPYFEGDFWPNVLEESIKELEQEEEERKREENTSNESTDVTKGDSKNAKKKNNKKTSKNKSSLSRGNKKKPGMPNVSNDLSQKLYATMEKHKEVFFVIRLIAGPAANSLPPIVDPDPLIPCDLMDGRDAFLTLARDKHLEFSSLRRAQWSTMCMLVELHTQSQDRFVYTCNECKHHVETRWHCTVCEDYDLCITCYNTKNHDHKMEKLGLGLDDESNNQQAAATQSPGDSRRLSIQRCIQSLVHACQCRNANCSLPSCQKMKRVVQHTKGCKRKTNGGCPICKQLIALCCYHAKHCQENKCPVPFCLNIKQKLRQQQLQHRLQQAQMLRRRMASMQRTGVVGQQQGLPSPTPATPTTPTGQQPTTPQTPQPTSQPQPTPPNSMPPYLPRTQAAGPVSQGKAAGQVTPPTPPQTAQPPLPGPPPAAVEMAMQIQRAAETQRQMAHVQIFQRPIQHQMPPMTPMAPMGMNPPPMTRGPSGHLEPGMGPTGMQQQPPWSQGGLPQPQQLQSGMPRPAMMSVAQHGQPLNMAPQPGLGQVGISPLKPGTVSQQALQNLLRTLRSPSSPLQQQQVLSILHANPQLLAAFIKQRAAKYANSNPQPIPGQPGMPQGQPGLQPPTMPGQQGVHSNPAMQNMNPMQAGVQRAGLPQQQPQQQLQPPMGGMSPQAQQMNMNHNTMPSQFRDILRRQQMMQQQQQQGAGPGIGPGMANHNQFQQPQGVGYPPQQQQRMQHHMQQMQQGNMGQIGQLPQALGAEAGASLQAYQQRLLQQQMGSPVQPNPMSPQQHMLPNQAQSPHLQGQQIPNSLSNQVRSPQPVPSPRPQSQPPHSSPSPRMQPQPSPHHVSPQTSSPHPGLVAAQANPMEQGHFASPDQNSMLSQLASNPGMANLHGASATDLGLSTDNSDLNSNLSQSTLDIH

T1: CITED2, endogenous (human (endogenous in HEK293T and prostate cancer cell lines)) (UniProt Q99967)
T1 sequence: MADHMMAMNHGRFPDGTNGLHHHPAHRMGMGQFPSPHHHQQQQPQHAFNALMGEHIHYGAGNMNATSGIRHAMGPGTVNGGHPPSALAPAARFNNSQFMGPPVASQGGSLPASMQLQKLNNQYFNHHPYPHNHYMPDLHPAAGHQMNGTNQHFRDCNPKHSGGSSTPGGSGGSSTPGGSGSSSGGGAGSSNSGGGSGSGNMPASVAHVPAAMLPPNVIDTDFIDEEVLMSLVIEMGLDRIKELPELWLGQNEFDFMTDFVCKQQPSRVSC

T2: RIOK1, endogenous (human (endogenous in HEK293T and prostate cancer cell lines)) (UniProt Q9BRS2)
T2 sequence: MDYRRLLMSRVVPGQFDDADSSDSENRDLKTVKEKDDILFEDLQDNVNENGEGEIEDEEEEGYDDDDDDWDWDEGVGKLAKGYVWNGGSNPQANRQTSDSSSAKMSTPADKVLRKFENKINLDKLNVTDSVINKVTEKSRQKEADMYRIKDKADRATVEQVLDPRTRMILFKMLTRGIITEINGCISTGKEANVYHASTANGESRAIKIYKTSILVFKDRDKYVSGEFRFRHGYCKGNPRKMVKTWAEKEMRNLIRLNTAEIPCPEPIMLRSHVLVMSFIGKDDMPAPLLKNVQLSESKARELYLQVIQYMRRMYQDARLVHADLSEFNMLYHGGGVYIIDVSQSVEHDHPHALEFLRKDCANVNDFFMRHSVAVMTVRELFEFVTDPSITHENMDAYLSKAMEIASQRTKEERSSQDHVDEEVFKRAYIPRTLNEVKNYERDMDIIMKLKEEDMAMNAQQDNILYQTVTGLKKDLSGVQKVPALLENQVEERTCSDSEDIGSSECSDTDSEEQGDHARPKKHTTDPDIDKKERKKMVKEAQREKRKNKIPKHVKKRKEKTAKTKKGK

B1: RIOK1, endogenous (protein, UniProt Q9BRS2 1-568)
chain: T2 sequence
B2: Human recombinant protein CITED2 (natural protein, UniProt Q99967 1-270, looked up)
chain: T1 sequence
notes: CITED2, human, recombinant protein bought from Origene; No catalogue number, host, tag or limits are printed; source: bought: Origene

Legend:
[1] = molecular target: T1, CITED2, endogenous (human (endogenous in HEK293T and prostate cancer cell lines)); assay: SEC; FPLC of lysates of HEK293T cells transfected with pcDNA or CITED2; Superdex 200 10/300 GL, 4 °C; lysis buffer 20 mM Tris/HCl pH 7.5, 150 mM NaCl, 1 mM EDTA, 0.5% NP-40; eluates immunoblotted
[2] = molecular target: T1, CITED2, endogenous (human (endogenous in HEK293T and prostate cancer cell lines)); assay: co-IP; prostate cancer cell lysates immunoprecipitated with anti-CITED2 antibody or IgG, immunoblotting
[3] = molecular target: T1, CITED2, endogenous (human (endogenous in HEK293T and prostate cancer cell lines)); assay: co-IP; endogenous proteins of HEK293T cells; immunoprecipitates with CITED2, PRMT5, NCL, WDR77 or RIOK1 antibodies, immunoblotting
[4] = molecular target: T3, Human recombinant protein NCL (human, UniProt P19338 1-710); assay: co-IP; in vitro binding assay: recombinant proteins CITED2, PRMT5, NCL and P300 put together in a test tube, immunoprecipitated with the indicated antibodies, immunoblotted; both purified
T3 construct: Nucleolin, human, recombinant protein bought from Origene; No catalogue number, host, tag or limits are printed; also called nucleolin; source: bought: Origene

[5] = molecular target: Flag/SBP-NCL (UniProt P19338); assay: co-IP; HEK293T cells cotransfected with Flag/SBP-NCL and CITED2 or si-CITED2; lysates immunoprecipitated with anti-Flag, immunoblotting
[6] = molecular target: WDR77, endogenous (human (endogenous in HEK293T and prostate cancer cell lines)) (UniProt Q9BQA1); assay: co-IP; endogenous proteins of HEK293T cells; immunoprecipitates with CITED2, PRMT5, NCL, WDR77 or RIOK1 antibodies, immunoblotting
[7] = molecular target: Nucleolin (NCL), endogenous (human (endogenous in HEK293T and prostate cancer cell lines)) (UniProt P19338); assay: as above
[8] = molecular target: T2, RIOK1, endogenous (human (endogenous in HEK293T and prostate cancer cell lines)); assay: as above

binding [1] | binding [2] | binding [3] | also measured | Molecule
binds | binds | binds | – | WDR77, endogenous (from UniProt Q9BQA1 1-342)
– | – | – | binding [4]: binds | Human recombinant protein P300 (from UniProt Q09472 1-2414)
– | – | – | binding [5]: binds | p300, endogenous (from UniProt Q09472 1-2414)
binds | binds | binds | – | B1
– | – | – | binding [6]: binds; binding [7]: binds; binding [8]: binds | B2
